The record followed here is article doi:10.1101/659938.

Assay [1] concerns the target T1, EGFP-Megator^1187-1655/WT (Drosophila) (UniProt A1Z8P9).
T1 sequence: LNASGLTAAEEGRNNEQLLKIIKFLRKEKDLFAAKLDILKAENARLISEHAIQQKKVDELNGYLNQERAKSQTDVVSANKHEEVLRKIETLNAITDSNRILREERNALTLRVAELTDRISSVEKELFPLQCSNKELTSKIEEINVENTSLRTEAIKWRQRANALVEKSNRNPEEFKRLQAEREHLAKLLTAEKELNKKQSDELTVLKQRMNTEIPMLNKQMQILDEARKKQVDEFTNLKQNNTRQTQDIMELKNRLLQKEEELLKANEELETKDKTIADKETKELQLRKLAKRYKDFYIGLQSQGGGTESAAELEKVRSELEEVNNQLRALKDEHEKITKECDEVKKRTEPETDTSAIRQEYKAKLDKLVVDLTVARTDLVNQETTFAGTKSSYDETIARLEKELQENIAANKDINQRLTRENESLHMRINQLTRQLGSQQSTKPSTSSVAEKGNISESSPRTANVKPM
Briefly: LARIAT.

The target of assay [2] is 6xHis-Mad1^1-493 (Drosophila). Briefly: pull-down.

Results are given in words; binding and its absence hold for the method and conditions named. A result given as binding can be weak or reduced; the word gives no strength. Tags and fused reporters may be left off the sequences shown.

For the molecule “Mad1 (Drosophila (endogenous in S2 cells))”, the binding entry in assay [1] is recorded as “binds weakly”.

B1: MBP-Megator^1187-1655/WT (domain or fragment, UniProt A1Z8P9 1187-1655)
chain: LNASGLTAAEEGRNNEQLLKIIKFLRKEKDLFAAKLDILKAENARLISEHAIQQKKVDELNGYLNQERAKSQTDVVSANKHEEVLRKIETLNAITDSNRILREERNALTLRVAELTDRISSVEKELFPLQCSNKELTSKIEEINVENTSLRTEAIKWRQRANALVEKSNRNPEEFKRLQAEREHLAKLLTAEKELNKKQSDELTVLKQRMNTEIPMLNKQMQILDEARKKQVDEFTNLKQNNTRQTQDIMELKNRLLQKEEELLKANEELETKDKTIADKETKELQLRKLAKRYKDFYIGLQSQGGGTESAAELEKVRSELEEVNNQLRALKDEHEKITKECDEVKKRTEPETDTSAIRQEYKAKLDKLVVDLTVARTDLVNQETTFAGTKSSYDETIARLEKELQENIAANKDINQRLTRENESLHMRINQLTRQLGSQQSTKPSTSSVAEKGNISESSPRTANVKPM
Regarding B1, the binding result in assay [2] is on record as “binds”.
